The test is described as follows: IkB Signaling. The conditions noted are these: ABC-DLBCL IkBa-CBG/CBR dual luciferase ratio (green luciferase fused to IkBa over red control in OCI-Ly3 lymphoma cells), 4 h. The essentials:
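Curves were fitted separately to fusion (green), unfused (red) and ratio luminescence, then classed by r2, magnitude and activity. Cells: OCI-Ly3, 4 h compound plus doxycycline at 37C; 10 uM MG-132 defined full response.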

Setting [1] is: measured here: control luc red channel unless noted.

SMILES strings stand for the structures. This is one part of the list. The main result of the screen is listed elsewhere. These columns were measured beside it and carry no call. Compounds called inactive in the main read-out are mostly missing here. Potencies come from curve fits of mixed quality, noted in brackets.

For orientation: AC50 means the concentration giving half of the maximal activity seen. For `COc1ccc(NC(=O)CCc2nnc3n(CC(C)C)c(=O)c4ccccc4n23)cc1`, under setting [1], the AC50 was 39.8 µM [falling, single point].

On to `COCC(C)NC(=O)c1cc(-c2cccc(OC)c2)on1` (configuration not stated), for which the AC50 under setting [1] was 10 µM [falling, partial curve].

Consider `CCc1ccccc1NC(=O)C1CCCN(c2ncnc3onc(C)c23)C1` (configuration not stated), for which the AC50 under setting [1] is 31.6 µM [falling, partial curve, poor fit].

As for `O=S(=O)(Cc1nc2ccccc2s1)c1ccccc1`, under setting [1], the AC50 was 39.8 µM [falling, single point].

With `Cc1ccc(Cl)cc1-n1ncc2c(Nc3cccc(C)c3C)ncnc21`, the AC50 under setting [1] is 25.1 µM [falling, partial curve].

On to `O=C(c1ccc(CSc2nc3ccncc3n2Cc2ccccc2)cc1)N1CCCCCC1`, for which the AC50 under setting [1] is 12.6 µM [falling, partial curve].

In the case of `Cc1cnn(C(=S)NCc2ccc(Cl)cc2)c1`, the AC50 under setting [1] was 20 µM [falling, partial curve].

Regarding `CCc1nn2c(=O)cc(COC(=O)c3ccccc3NC(=O)C3CCCCC3)nc2s1`, the AC50 under setting [1] is 39.8 µM [falling, single point].

As for `CCc1ccc(CNCc2c(C(=O)O)n(Cc3ccc(F)cc3Cl)c3cc(OC)ccc23)cc1`, the AC50 under setting [1] is 7.94 µM [falling, partial curve].

In the case of `COc1cc2ccccc2cc1C(=O)N1CCN(c2nc3ccc(F)cc3s2)CC1`, the AC50 under setting [1] was 15.8 µM [falling, partial curve].

With `COc1cc(CCC(=O)NCc2ccc3c(c2)CCN3C(=O)c2ccc(F)cc2)cc(OC)c1OC`, the AC50 under setting [1] was 0.01 µM [falling, full curve].

Regarding `CCOC(=O)c1ccc(N2C(=O)C3C(C2=O)C(C(=O)c2ccc(Cl)cc2)N2CCCC32)cc1` (configuration not stated), the AC50 under setting [1] is 12.6 µM [falling, partial curve].

Turning to `CSC1CCCCC1(O)CSc1nc2ccccc2o1` (configuration not stated), under setting [1], the AC50 is 39.8 µM [falling, single point].

`CCOC(=O)c1c(C)n(C)c2ccc(OCC(O)Cn3c(C)nc4ccccc43)cc12` (configuration not stated): the AC50 under setting [1] is 10 µM [falling, partial curve].

In the case of `CSc1ccccc1NC(=O)COc1ccc(S(=O)(=O)N2CCCC2)cc1`, the AC50 under setting [1] was 12.6 µM [falling, partial curve].

As to `CC(=O)c1ccc(NC(=O)c2ccc(-c3nc(CSc4ccccc4)c(C)o3)cc2)cc1`, the AC50 under setting [1] was 1.26 µM [falling, partial curve].

On to `Cn1c(=O)c2c(nc(Br)n2CCCc2ccccc2)n(C)c1=O`, for which the AC50 under setting [1] is 20 µM [falling, partial curve].

Turning to `CSc1ccc(-c2nc(CSCC(=O)N3CCOCC3)c(C)o2)cc1`, the AC50 under setting [1] was 12.6 µM [falling, partial curve].

As for `Fc1ccc(-c2noc3ncnc(NCC4CCN(Cc5ccc(Cl)cc5)CC4)c23)cc1`, the AC50 under setting [1] is 20 µM [falling, single point].

`CCN1CCN(S(=O)(=O)c2cc(OCC(=O)NC3CCCCC3)c(C)cc2Cl)CC1`: the AC50 under setting [1] was 2 µM [falling, full curve].

In the case of `COc1cc(OC)cc(-c2nnc(SCC(=O)N(Cc3ccccc3)C(C)(C)C)o2)c1`, the AC50 under setting [1] is 25.1 µM [falling, partial curve].

As to `COc1cc(NC(=O)c2cc(C)nc3c2c(C)nn3-c2ccccc2Cl)cc(OC)c1`, the AC50 under setting [1] was 39.8 µM [falling, single point].

Consider `Cc1ccc(C(=O)Nc2ccc(S(=O)(=O)N3CCc4ccccc4C3)cc2)o1`, for which the AC50 under setting [1] is 10 µM [falling, partial curve].

For the compound `Cc1cc(C)c2nc(N3CCC(C(=O)N4CCCC4)CC3)sc2c1`, the AC50 under setting [1] is 12.6 µM [falling, partial curve].

With `Cc1ccc2cc3c(N)nn(C(=O)c4cccc(F)c4)c3nc2c1`, the AC50 under setting [1] was 39.8 µM [falling, single point].

For the compound `COc1ccc(CCNC(=O)c2cnc3sc(N4CCCC4)nn3c2=O)cc1OC`, the AC50 under setting [1] was 25.1 µM [falling, single point].

With `CSCCC(NS(=O)(=O)c1ccc2c(c1)oc(=O)n2C)C(=O)N1CCN(c2cccc(Cl)c2)CC1` (configuration not stated), the AC50 under setting [1] is 10 µM [falling, partial curve].

With `Cc1ccc(CN(Cc2ccco2)C(=O)COc2ccc(Cl)cc2)o1`, the AC50 under setting [1] is 39.8 µM [falling, single point].

In the case of `COc1cc(NC(=O)c2cc3ccccn3n2)cc(OC)c1OC`, the AC50 under setting [1] was 0.631 µM [rising, partial curve].

Turning to `COc1ccc(N2CCN(C(=O)c3cccc(NC(=O)c4nsc5ccccc45)c3)CC2)cc1`, the AC50 under setting [1] was 0.631 µM [rising, full curve, poor fit].

As to `CCOC(=O)c1ccc(NC(=O)Nc2cc3c(cc2N2CCCC2)n(C)c(=O)n3C)cc1`, under setting [1], the AC50 was 39.8 µM [falling, single point].

On to `COC(=O)c1cc(NC(=O)c2nn(C)c3c2COc2ccccc2-3)cc(C(=O)OC)c1`, for which the AC50 under setting [1] is 12.6 µM [falling, partial curve].

`COc1ccc(S(=O)(=O)Nc2ccc3c(c2)CCCN3S(=O)(=O)c2ccc(C)cc2)cc1F`: under setting [1], the AC50 is 31.6 µM [falling, single point].

In the case of `CCOc1ccc(S(=O)(=O)Nc2cc(OC)ccc2OC)cc1`, the AC50 under setting [1] was 2.51 µM [rising, full curve] [measured here: IkB-luc green channel].

For `CCC(CC)C(=O)Nc1nc2c(s1)CC(C)CC2` (configuration not stated), under setting [1], the AC50 is 25.1 µM [falling, partial curve].

Take `Cc1cc(C)cc(NC(=O)Cn2nnc(-c3nc(-c4ccncc4)no3)c2N)c1`: the AC50 under setting [1] is 2 µM [rising, single point].

On to `Cc1cc2c(cc3c(SCc4nc(-c5ccccc5)oc4C)nnc(C)n32)o1`, for which the AC50 under setting [1] was 20 µM [falling, single point].

As for `Cc1ccc(N2CCN(S(=O)(=O)c3ccc(F)c(C(=O)Nc4ccc(Cl)cc4Cl)c3)CC2C)cc1` (configuration not stated), under setting [1], the AC50 was 1.26 µM [falling, full curve, poor fit].

On to `CC1CCN(CCC(=O)N2CCCc3c2c(=O)oc2ccc(O)cc32)CC1`, for which, under setting [1], the AC50 was 12.6 µM [falling, partial curve].

Consider `CCn1ccc2c(OCC(=O)Nc3ccccc3C)cccc2c1=O`, for which the AC50 under setting [1] is 0.316 µM [falling, full curve, poor fit].

For `CCOC(=O)Cn1c(=O)oc2cc(S(=O)(=O)N3CCN(c4ccc(C(C)=O)cc4)CC3)ccc21`, the AC50 under setting [1] is 15.8 µM [falling, partial curve].

For `CCOc1ccc(S(=O)(=O)c2cn(Cc3cc(C)ccc3C)c3ccc(OCC)cc3c2=O)cc1`, the AC50 under setting [1] was 1.58 µM [falling, full curve].

Regarding `COc1cccc(-c2nc(CS(=O)(=O)CC(=O)Nc3cccc(C)c3C)c(C)o2)c1`, the AC50 under setting [1] is 20 µM [falling, partial curve].

`COc1cccc(C(=O)Nc2cccc(-c3nc4ncccc4o3)c2C)c1`: the AC50 under setting [1] was 3.16 µM [falling, full curve, poor fit].

As for `CCOc1ccc(NC(=O)c2cc(S(=O)(=O)N3CCOCC3)ccc2F)cc1`, under setting [1], the concentration at half-maximal activity (AC50) is 10 µM [falling, partial curve].

As for `CCCOC(=O)c1ccc(Cn2nnc3sc4c(c3c2=O)CCC(C)C4)cc1` (configuration not stated), the AC50 under setting [1] was 6.31 µM [falling, partial curve].

For the compound `CO[C@@H]1CC[C@@]2(C)[C@@H](CC[C@@]3(C)[C@H]2CC=C2[C@H]4CC(C)(C)[C@H](O)[C@@H](OC(C)=O)[C@]4(CO)[C@H](O)C[C@]23C)[C@@]1(C)CO` (tested in a mixture with another compound), the AC50 runs as follows: (measured here: IkB-luc green channel) 7.94 µM [rising, partial curve]; (measured here: control luc red channel) 10 µM [rising, partial curve].

Take `COc1ccccc1NC(=O)C1=C(C)Nc2nc(SCc3ccccc3)nn2C1c1cccnc1` (configuration not stated): the AC50 under setting [1] was 12.6 µM [falling, partial curve, poor fit].

In the case of `CCOC(=O)c1cc(C#N)c(SCC(=O)c2cc(C#N)c(SC)nc2C)[nH]c1=O`, the AC50 under setting [1] is 39.8 µM [falling, single point].

For the compound `COc1ccc(CCNC(=O)CCn2c(=O)c3ccccc3n(CC(=O)Nc3ccc(C)cc3C)c2=O)cc1OC`, the AC50 under setting [1] was 0.398 µM [rising, full curve].

Consider `COc1ccc(-c2cn3nc(SCC(=O)Nc4ccc(C)c(Cl)c4)ccc3n2)cc1`, for which the AC50 under setting [1] was 2.51 µM [falling, full curve].

Regarding `Cc1ccc(NC(c2ccc(Cl)cc2)c2nnc(-c3cccc(F)c3)o2)cc1C` (configuration not stated), under setting [1], the AC50 is 25.1 µM [falling, single point].

`CCN(CCCNC(=O)c1cc(Nc2ccccc2OC)nc2ccccc12)c1cccc(C)c1`: the AC50 under setting [1] was 2.51 µM [falling, full curve].

Regarding `COc1ccc(OC)c(CCNC(=O)c2c3c(nc4ccccc24)C(=O)N(C2CCCCC2)C3)c1`, under setting [1], the AC50 is 10 µM [falling, partial curve].

Regarding `O=S(=O)(NCC(Nc1ccc(Cl)cc1)c1ccccc1)c1ccccc1` (configuration not stated), the AC50 under setting [1] was 15.8 µM [falling, partial curve].

With `COc1cc(NC(=O)Nc2ccccc2)c(OC)cc1NC(=O)CN1CCCCC1`, under setting [1], the AC50 is 31.6 µM [falling, partial curve].

Consider `CCCCCCSc1nsc(NC(C)=O)n1`, for which the AC50 under setting [1] is 0.398 µM [rising, full curve].

With `Cc1ccc(CNCc2c(C(=O)O)n(Cc3ccc(C)cc3)c3cc(C)ccc23)cc1`, under setting [1], the AC50 was 25.1 µM [falling, partial curve].

In the case of `COc1ccc(-c2noc(CNS(=O)(=O)c3ccc(Br)cc3)n2)cc1OC`, the AC50 under setting [1] is 31.6 µM [falling, single point].

`Cc1ccc(-c2noc(CN(C(=O)COc3cc(C)cc(C)c3C)C(C)C)n2)cc1`: under setting [1], the AC50 was 25.1 µM [falling, single point].

Turning to `Cn1c(=O)c2c(c3ccccc31)OC(=O)CC2c1cccc(F)c1` (configuration not stated), the AC50 under setting [1] is 20 µM [falling, single point].

Values taken from PubChem BioAssay AID445 (National Center for Advancing Translational Sciences (NCATS), 2006).
